Source: patent US20090004749, “METHOD AND KIT FOR DETERMINING THE AMOUNT OF DNA BINDING PROTEIN” (SYSMEX CORPORATION, published 2009)

Tests used:
[1] = tested on: NF-κB (endogenous, TNF-α-activated HeLa nuclear extract) (Homo sapiens); test: binding assay; conditions: FCS; HeLa nuclear extract with TNF-α; poly(dIdC); protein in an extract; label: 5'-TAMRA; folded or branched DNA
[2] = tested on: NF-κB (endogenous, TNF-α-activated HeLa nuclear extract) (Homo sapiens); test: competition with a labelled probe; conditions: FCS, poly(dIdC), protein in an extract, folded or branched DNA

“AGTTGAGGGGACTTTCCCAGGCAAAAGCCTGGGAAAGTCCCCTCAACT [Pfw]”: binds [1].

“AGTTGAGGGGACTTTCCCAGGCAAAAGCCTGGGAAAGTCCCCTCAACT [Pw]”: binds ([2]; 50 nM Pw competes with 1 nM Pfw, variant of Pfw).

“CAGGCGCGTTTTGACCATCTTAAAAAAGATGGTCAAAACGCGCCTG [Pn]”: no binding ([2]; 50 nM Pn does not compete).

The exact form of at least one protein or probe is not confirmed. Results from cells or extracts need not show a direct contact. For part of these data: A negative result means that nothing was seen under these conditions.
